For one assay, the target named is Axin1 (endogenous) (UniProt O15169). The assay is described as follows: co-IP.
Assay [1] deals with GST-USP10 full-length (human) (UniProt Q14694). In words: pull-down.
The target in the next assay is GST-USP10 CA (human) (UniProt Q14694). In words: pull-down.

Sequences of proteins named here, by UniProt entry; tags and fusion partners are left off. A change or cut given only in a name is not applied to a line headed by its entry. A line that says so, or that is headed by a name, gives the form on record, which may keep a tag or linker.
UniProt O15169: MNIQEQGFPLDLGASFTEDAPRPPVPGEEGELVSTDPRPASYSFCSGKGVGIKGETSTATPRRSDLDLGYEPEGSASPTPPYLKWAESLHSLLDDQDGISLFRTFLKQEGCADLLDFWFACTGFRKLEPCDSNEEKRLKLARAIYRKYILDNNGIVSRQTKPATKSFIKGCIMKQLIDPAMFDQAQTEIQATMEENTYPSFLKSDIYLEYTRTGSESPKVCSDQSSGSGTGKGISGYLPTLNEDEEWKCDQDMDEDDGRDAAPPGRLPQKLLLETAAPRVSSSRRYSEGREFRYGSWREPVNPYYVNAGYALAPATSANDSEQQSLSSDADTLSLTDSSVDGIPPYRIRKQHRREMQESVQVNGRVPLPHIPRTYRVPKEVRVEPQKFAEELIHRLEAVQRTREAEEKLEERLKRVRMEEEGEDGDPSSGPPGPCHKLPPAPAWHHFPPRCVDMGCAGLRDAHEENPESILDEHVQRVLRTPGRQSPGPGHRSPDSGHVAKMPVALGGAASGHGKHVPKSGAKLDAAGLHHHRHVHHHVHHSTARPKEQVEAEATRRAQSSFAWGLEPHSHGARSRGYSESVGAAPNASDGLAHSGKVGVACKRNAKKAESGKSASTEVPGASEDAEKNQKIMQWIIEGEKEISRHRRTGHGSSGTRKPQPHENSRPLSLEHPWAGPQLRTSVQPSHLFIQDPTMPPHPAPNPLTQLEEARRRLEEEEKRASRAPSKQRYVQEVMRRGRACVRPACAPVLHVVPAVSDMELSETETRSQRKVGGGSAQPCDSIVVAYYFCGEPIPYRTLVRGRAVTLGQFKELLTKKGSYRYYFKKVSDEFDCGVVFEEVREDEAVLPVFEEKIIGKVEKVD
UniProt Q14694: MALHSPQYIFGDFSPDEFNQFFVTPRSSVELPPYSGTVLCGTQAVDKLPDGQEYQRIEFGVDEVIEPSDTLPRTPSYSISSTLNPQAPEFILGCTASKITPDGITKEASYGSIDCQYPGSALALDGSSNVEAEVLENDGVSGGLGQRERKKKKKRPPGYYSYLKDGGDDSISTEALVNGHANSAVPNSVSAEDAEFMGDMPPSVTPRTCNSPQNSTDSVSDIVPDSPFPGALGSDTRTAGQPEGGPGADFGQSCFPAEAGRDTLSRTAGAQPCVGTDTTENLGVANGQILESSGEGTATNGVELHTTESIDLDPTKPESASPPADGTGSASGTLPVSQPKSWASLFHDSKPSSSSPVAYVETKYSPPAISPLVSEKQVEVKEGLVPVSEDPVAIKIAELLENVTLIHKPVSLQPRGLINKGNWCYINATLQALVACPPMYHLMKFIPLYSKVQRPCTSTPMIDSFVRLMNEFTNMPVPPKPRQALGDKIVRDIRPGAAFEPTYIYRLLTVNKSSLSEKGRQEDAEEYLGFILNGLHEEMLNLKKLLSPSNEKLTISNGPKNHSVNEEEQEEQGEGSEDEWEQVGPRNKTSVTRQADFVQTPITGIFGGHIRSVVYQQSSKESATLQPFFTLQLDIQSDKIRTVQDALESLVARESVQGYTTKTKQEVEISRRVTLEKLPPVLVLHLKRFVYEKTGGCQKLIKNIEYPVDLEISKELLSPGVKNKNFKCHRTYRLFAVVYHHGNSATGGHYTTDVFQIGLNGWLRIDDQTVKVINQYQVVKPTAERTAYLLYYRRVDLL
GST-USP10 CA (Q14694, form named): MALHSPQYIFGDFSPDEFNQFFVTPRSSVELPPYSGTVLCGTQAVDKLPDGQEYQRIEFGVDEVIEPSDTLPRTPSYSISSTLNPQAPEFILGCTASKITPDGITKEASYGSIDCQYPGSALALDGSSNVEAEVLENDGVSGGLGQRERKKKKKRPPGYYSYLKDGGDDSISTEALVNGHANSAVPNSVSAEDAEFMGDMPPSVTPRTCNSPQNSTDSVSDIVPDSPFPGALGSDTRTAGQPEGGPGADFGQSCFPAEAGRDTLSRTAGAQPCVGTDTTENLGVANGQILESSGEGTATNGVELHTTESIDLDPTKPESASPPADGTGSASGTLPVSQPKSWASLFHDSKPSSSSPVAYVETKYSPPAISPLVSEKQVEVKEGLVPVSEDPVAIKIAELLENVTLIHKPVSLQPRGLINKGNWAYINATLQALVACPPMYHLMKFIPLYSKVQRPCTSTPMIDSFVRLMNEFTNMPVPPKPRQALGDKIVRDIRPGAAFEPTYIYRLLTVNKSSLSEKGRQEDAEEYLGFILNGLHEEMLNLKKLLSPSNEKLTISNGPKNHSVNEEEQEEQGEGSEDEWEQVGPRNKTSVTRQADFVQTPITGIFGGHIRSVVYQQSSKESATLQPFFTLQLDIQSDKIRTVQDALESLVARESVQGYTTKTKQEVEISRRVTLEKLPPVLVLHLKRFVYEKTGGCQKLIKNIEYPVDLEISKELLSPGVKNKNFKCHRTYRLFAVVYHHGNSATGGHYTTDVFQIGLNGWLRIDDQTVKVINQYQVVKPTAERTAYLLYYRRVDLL
UniProt P35222: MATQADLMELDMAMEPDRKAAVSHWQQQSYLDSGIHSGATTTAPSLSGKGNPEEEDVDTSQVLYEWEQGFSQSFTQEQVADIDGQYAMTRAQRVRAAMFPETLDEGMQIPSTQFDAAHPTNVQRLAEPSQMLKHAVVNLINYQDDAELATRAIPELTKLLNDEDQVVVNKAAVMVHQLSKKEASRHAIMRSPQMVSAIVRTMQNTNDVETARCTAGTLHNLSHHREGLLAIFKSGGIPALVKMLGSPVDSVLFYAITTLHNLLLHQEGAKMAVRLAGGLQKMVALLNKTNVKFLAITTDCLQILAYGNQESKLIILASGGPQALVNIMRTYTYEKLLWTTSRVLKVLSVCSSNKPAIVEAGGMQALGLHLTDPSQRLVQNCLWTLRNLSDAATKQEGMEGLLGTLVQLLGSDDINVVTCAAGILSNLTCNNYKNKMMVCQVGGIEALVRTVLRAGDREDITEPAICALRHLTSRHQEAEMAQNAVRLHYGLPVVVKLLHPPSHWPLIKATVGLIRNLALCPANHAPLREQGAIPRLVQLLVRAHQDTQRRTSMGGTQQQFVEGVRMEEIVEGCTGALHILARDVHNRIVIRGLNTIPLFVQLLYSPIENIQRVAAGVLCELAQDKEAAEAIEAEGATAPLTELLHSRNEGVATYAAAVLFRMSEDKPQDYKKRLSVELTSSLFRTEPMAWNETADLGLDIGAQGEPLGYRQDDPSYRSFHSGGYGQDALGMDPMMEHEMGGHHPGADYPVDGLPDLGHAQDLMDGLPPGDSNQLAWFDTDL

Consider two substances from doi:10.1101/2022.10.31.514466.

Results are given in words; binding and its absence hold for the method and conditions named. In cells and extracts the contact can be indirect. Some results given as binding are weak or reduced against the parent protein; the word gives no strength.

“β-catenin (endogenous) (from UniProt P35222 1-781)”: the binding result with Axin1 (endogenous) is on record as “binds”.

For “Axin1 (prey of the GST-USP10 pull-downs) (from UniProt O15169 1-862)”, the binding entry (in assay [1]; in the assay with GST-USP10 CA (human)) was “binds” in each case.
